The results in this text go back to patent US20210230600.

The chains behind the UniProt entries cited, without tags or fusion partners. Residues count along the entry.
UniProt Q9NZQ7, 19-290: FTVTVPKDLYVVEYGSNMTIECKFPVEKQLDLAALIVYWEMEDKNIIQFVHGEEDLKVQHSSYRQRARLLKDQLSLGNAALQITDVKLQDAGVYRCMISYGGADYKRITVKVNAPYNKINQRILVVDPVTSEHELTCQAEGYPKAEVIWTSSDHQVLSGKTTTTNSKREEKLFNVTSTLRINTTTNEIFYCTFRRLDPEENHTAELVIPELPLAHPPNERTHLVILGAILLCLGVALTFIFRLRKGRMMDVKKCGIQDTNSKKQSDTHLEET

Results from cells or extracts need not show a direct contact. For some assays here: The exact form of at least one protein or probe is not confirmed. For some assays here: No signal at the amounts used counts as a negative.

One data set addresses PD-L1 (UniProt Q9NZQ7). Nature of the data set: binding assay. As to conditions: plate-reader fluorescence on fixed cells, 700 nM, DPBS with Ca, Mg, KCl, 37 C; protein on the cell surface; protein details: on PFA-fixed MDA-MB-231 cells; label: Alexa647; single-stranded DNA.
Data set [1] has as its system PD-L1 (mouse PD-L1 on CT-26 cells or human PD-L1 on CHO-K1 cells + the cell line shown is not stated) (Mus musculus / Homo sapiens). Nature of the data set: flow cytometry. As to conditions: protein on the cell surface, single-stranded DNA. Background: In flow cytometry, cells or beads pass a laser one at a time.
Where [2] appears, read: 100 nM, on ice, BSA staining buffer, label: Alexa647.

Consider “ACGGGCCACATCAACTCATTGATAGACAATGCGTCCACTGCCCGT [AptPDL1-45mer]”, for which the binding result is given as “binds” in the data set with PD-L1; “binds” in data set [1] (100 nM and 600 nM, also in DPBS with Ca, Mg and 1.33 mM KCl, label: Alexa647). Take “ACTCATTGATAGACAATGCGTGCCCGCAGC [AptPDL1-A4]”: the binding result (with PD-L1; in data set [1] (setting [2])) was “binds” each time.

As for AGCGATTGATAGACAATCGCT [AptPDL1-n05], the binding result in data set [1] (setting [2]) was “binds”. With “AGTTATGCTTTCCCCCTCTTTGATAGACAA [AptPDL1-2A]”, the binding result (with PD-L1; in data set [1] (setting [2])) was “binds” each time.

Turning to “ATGAACTCATTCATACACAATGCGTG [AptPDL1-n07]”, the binding result (with PD-L1; in data set [1] (setting [2])) was “binds” throughout. “GAACAAAGGTATTAGACATCTTGATAGACAA [AptPDL1-3A]”: the binding result (in the data set with PD-L1; in data set [1] (setting [2])) was “binds” each time. As to “GTTGTTTTTTCACTCATTGATAGACAATGCGT [AptPDL1-1A]”, the binding result (in the data set with PD-L1; in data set [1] (setting [2])) was “binds” each time.

As to “TCGAACGTTCGAACGTTCGAACGTTCGAAT [CpG-L0-PS]”, in data set [1] (PS at all linkages, negative control without affinity for PD-L1), the binding result is on record as “no binding”.
